## Primary screen of a compound library

Sequences of proteins named here, by UniProt entry; tags and fusion partners are left off.
UniProt E9BF75, entry or part of it: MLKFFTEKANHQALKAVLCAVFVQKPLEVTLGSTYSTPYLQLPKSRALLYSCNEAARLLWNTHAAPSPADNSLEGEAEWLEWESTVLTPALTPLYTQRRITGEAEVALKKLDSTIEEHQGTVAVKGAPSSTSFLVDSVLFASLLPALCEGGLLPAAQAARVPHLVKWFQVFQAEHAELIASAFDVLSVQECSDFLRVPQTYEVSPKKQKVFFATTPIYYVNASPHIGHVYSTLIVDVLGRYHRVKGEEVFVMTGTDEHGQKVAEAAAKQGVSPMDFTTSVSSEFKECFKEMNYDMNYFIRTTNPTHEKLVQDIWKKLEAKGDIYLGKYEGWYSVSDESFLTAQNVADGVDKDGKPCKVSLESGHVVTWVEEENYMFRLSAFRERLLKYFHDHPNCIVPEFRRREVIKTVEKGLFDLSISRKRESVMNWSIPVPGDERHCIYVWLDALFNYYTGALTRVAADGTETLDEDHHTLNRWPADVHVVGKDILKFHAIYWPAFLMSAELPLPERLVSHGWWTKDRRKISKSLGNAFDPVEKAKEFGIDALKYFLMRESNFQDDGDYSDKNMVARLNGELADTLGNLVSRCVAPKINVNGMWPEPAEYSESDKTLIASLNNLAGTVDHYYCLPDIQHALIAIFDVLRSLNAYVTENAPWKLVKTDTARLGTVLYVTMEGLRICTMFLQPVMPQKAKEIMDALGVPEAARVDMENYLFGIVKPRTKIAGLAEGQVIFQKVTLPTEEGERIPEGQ

The values are deposited in ChEMBL (CHEMBL3988442, “University of Dundee, Small-Polar-MMV Screening Library” (2021)).

All values are in %. How 0% and 100% were set is not recorded. Most values in the screen are low, and negative values occur. The compounds are a random part of those screened. A dash means the value is not listed here; it may have been measured.

LdMetRS: 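Primary screen of methionyl-tRNA synthetase; the read-out is not stated. Target: Methionyl-tRNA synthetase (putative), Leishmania donovani (UniProt E9BF75). The test concentration is not given. Values are per cent inhibition. Size under these conditions: about 68,000 compounds, about 24 of them at 50% or above in at least one test.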
Mtb heat-shock: 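Assay on Mycobacterium tuberculosis, filed only as a heat shock assay from Cornell; the read-out is not stated. The concentration is filed as 10 mM, unlikely as a test dose, so the dose is not known. Direction is inferred from retests: higher values go with stronger inhibition. About 69,000 compounds were tested under these conditions; 1.4% (about 930) showed 50% or more at least once.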

{"compound": "CSCCC(O)C(=O)N1CCCN(Cc2ccc(F)cc2)CC1", "stereo": "centres unmarked", "LdMetRS": 2.405, "Mtb heat-shock": 28.06}
{"compound": "CC(C)C(=O)N1CCCC1c1nc(N(C)C)ncc1-c1ccc(Cl)cc1", "stereo": "centres unmarked", "LdMetRS": 4.724, "Mtb heat-shock": 5.189}
{"compound": "Cc1noc(C)c1CN1C[C@H](OCC2CC2)[C@H]2COC[C@H]21", "LdMetRS": 13.14}
{"compound": "CN(C(=O)NCCCNc1ccccn1)C1CCS(=O)(=O)C1", "stereo": "centres unmarked", "LdMetRS": 10.82, "Mtb heat-shock": -1.771}
{"compound": "O=C(Cc1cccs1)NCC1(O)CCSC1", "stereo": "centres unmarked", "LdMetRS": 12.32, "Mtb heat-shock": 3.294}
{"compound": "CN1CCC(NC(=O)Nc2ccc(F)c(Br)c2)C1=O", "stereo": "centres unmarked", "LdMetRS": 19.23, "Mtb heat-shock": -3.774}
{"compound": "C1CC(N2C[C@@H]3COC[C@]3(COCC3CCOCC3)C2)C1", "LdMetRS": 15.5}
{"compound": "COc1ccc(CN2CCOC[C@H](OCC(=O)N(C)C)C2)cc1", "LdMetRS": 7.519, "Mtb heat-shock": -20.14}
{"compound": "Cc1ccc(N2Cc3c(CN(C)C)nn(C)c3C2)nn1", "LdMetRS": 9.343, "Mtb heat-shock": -27}
{"compound": "Cc1cc2c(=O)n3c(nc2s1)CCN(Cc1cnc(C(C)C)nc1)CC3", "LdMetRS": 10.84, "Mtb heat-shock": -1.044}
{"compound": "O=C(NC1CC1)c1cc(C2CCCN(Cc3ccccn3)C2)no1", "stereo": "centres unmarked", "LdMetRS": 14.19, "Mtb heat-shock": -3.124}
{"compound": "CCn1cnnc1CNC(=O)NC(C)c1cccs1", "stereo": "centres unmarked", "LdMetRS": 13.36, "Mtb heat-shock": 13.02}
{"compound": "Cc1ccoc1C(=O)N1C[C@H](OCc2cccnc2)[C@H]2OCCC[C@H]21", "LdMetRS": 9.804}
{"compound": "CC(=O)N1CCCC(C(=O)c2cnn(-c3ccc(F)cc3)c2N)C1", "stereo": "centres unmarked", "LdMetRS": 13.35, "Mtb heat-shock": -2.09}
{"compound": "CC(O)c1cccc(N2CCC3(CCC(=O)N(CC(N)=O)C3)CC2)n1", "stereo": "centres unmarked", "LdMetRS": 1.961, "Mtb heat-shock": -16.99}
{"compound": "COc1ccc(CN2CCO[C@H]3CN(C(C)=O)CC[C@H]3C2=O)cc1", "LdMetRS": 11.54}
{"compound": "O=C(NCCO)Nc1ccc(Cl)cc1-n1cccc1", "LdMetRS": 21.55, "Mtb heat-shock": 8.613}
{"compound": "O=C(O)C(F)(F)F.[H][C@@]12CCCO[C@]1([H])[C@@H](Oc1cccnc1)CN2S(=O)(=O)N(C)C", "Mtb heat-shock": -10.45}
{"compound": "CC(C)c1nc(C(=O)NCCn2ccnc2)nn1-c1cccc(F)c1", "LdMetRS": 17.32, "Mtb heat-shock": 21.17}
{"compound": "CCC(NC(=O)c1cc(CC(C)C)nn1C)c1ccnn1C", "stereo": "centres unmarked", "LdMetRS": 0.6849, "Mtb heat-shock": -10.43}
{"compound": "CCS(=O)(=O)N1CCCC2(CCCN2Cc2cccc(Cl)c2)C1.O=C(O)C(F)(F)F", "stereo": "centres unmarked", "Mtb heat-shock": 2.903}
{"compound": "CCN(CC)C(=O)[C@@H]1C[C@H](n2cc(-c3ccccn3)nn2)CN1", "LdMetRS": 2.211, "Mtb heat-shock": -48.73}
{"compound": "O=C1N(Cc2ccccc2F)CCCC12CCN(C1CCSCC1)C2", "stereo": "centres unmarked", "LdMetRS": 21.46, "Mtb heat-shock": 35.05}
{"compound": "Cc1noc(CN2CC=C(c3c[nH]c4ncccc34)CC2)n1", "LdMetRS": 21.55, "Mtb heat-shock": 1.607}
{"compound": "Cc1oc(C(=O)O)cc1S(=O)(=O)Nc1cccc(-c2nccs2)c1", "LdMetRS": 13.65, "Mtb heat-shock": -3.857}
{"compound": "CCN1CCC(NC(=O)CN2CCCC2Cn2nc(C)cc2C)CC1", "stereo": "centres unmarked", "LdMetRS": 14.38, "Mtb heat-shock": -0.8241}
{"compound": "COCc1nc(CN2CCN(c3ccc(OC)cc3)C(=O)C2C)no1", "stereo": "centres unmarked", "LdMetRS": 14.86, "Mtb heat-shock": -25.5}
{"compound": "CCn1cc(CNC(=O)CC(C)C)cn1", "LdMetRS": 18.7, "Mtb heat-shock": -0.0873}
{"compound": "CCN(Cc1nc(COC)no1)Cc1cccnc1NC", "LdMetRS": 12.81, "Mtb heat-shock": 6.05}
{"compound": "CCC1CCCCN1C(=O)CCn1cnc2sccc2c1=O", "stereo": "centres unmarked", "LdMetRS": 17.01, "Mtb heat-shock": -24.42}
{"compound": "Cc1cnc(N2CCC3(CCN(Cc4csc(C)n4)C3=O)C2)nc1.O=C(O)C(F)(F)F", "stereo": "centres unmarked", "Mtb heat-shock": -3.389}
{"compound": "O=S1(=O)CCC(c2nnc(-c3cnc4onc(C5CCCC5)c4c3)o2)C1", "stereo": "centres unmarked", "LdMetRS": 17.47, "Mtb heat-shock": -0.1413}
{"compound": "CN(C)CC1(O)CCN(S(=O)(=O)c2ccc(F)c(F)c2)C1", "stereo": "centres unmarked", "LdMetRS": 12.67, "Mtb heat-shock": -16.09}
{"compound": "CC(NC(=O)CSCC(N)=O)c1ccc(Oc2ccccc2)cc1", "stereo": "centres unmarked", "LdMetRS": 17.13, "Mtb heat-shock": 1.897}
{"compound": "Cc1ccc(N2CC[C@@H]3[C@@H]2CCN3C(=O)Cc2cccs2)nn1", "LdMetRS": 14.55}
{"compound": "COc1cccc(-c2noc(-c3ccc(NCC(C)O)nc3)n2)c1OC", "stereo": "centres unmarked", "LdMetRS": 15.64, "Mtb heat-shock": -2.563}
{"compound": "Cc1cc(CN2CCCC2c2c(C)nn(C)c2Cl)no1", "stereo": "centres unmarked", "LdMetRS": 9.449, "Mtb heat-shock": -11.7}
{"compound": "O=C(O)C(F)(F)F.[H][C@@]12COC[C@]1(COc1cccnc1)CN(C(=O)c1cc(C3CC3)on1)C2", "Mtb heat-shock": 24.08}
{"compound": "CC(C)(C)C(=O)NCCC(=O)NC(C)(C)c1ccc2c(c1)OCCO2", "LdMetRS": 9.36, "Mtb heat-shock": -5.321}
{"compound": "[H][C@@]12CCN(Cc3c(C)noc3C)C[C@@]1([H])O[C@H](c1nccs1)C2", "Mtb heat-shock": 1.772}
{"compound": "CCOCc1cnc2n1CCN(C(=O)C1=CCCC1)C2C", "stereo": "centres unmarked", "LdMetRS": 16.43, "Mtb heat-shock": -7.076}
{"compound": "Cc1n[nH]c2nc(-c3ccccc3O)cc(C(=O)O)c12", "LdMetRS": 14.16, "Mtb heat-shock": 8.079}
{"compound": "c1csc(CN2CCO[C@@H]3CN(C4CCOCC4)C[C@@H]3C2)c1", "LdMetRS": 7.971}

Repeated from the top, 5 entries:

compound	LdMetRS	Mtb heat-shock
CSCCC(O)C(=O)N1CCCN(Cc2ccc(F)cc2)CC1 (centres unmarked)	2.405	28.06
CC(C)C(=O)N1CCCC1c1nc(N(C)C)ncc1-c1ccc(Cl)cc1 (centres unmarked)	4.724	5.189
Cc1noc(C)c1CN1C[C@H](OCC2CC2)[C@H]2COC[C@H]21	13.14	-
CN(C(=O)NCCCNc1ccccn1)C1CCS(=O)(=O)C1 (centres unmarked)	10.82	-1.771
O=C(Cc1cccs1)NCC1(O)CCSC1 (centres unmarked)	12.32	3.294